Results reported in the supplement of paper PMC10338343.
± gives the standard deviation. The list shows a part of the results, in another mix than the full data. Many entries were measured with a wide error.

These sequences were tested on MIWI (PIWIL1) piRISC loaded with L1MC piRNA (30 nt) (assay: pre-steady-state target cleavage rate (min^-1); MIWI and MILI are mouse PIWI proteins and EfPiwi is from a freshwater sponge; tags in brackets are library labels; higher = faster piRNA-guided slicing of the target). Conditions: guide: L1MC piRNA 5'p-UAACUAAAUACUAUGCAAGCUGUAGGUCCU; auxiliary factor: 500 nM mouse GTSF1.
Summary of the method: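 Cleave-'n-Seq: a transcribed, DNA-blocked target RNA library (0.1 nM) was mixed with 1 nM active affinity-purified piRISC carrying one synthetic guide, with or without 500 nM GTSF1 partner protein, in HEPES–potassium acetate buffer at 33 °C for 0–8 or 0–960 min. Uncleaved targets were sequenced and normalised to depth and to weakly complementary targets. Three trials were pooled, and k3 was capped at 0.0001 min^-1. The pre-steady-state cleavage rate came from a burst-and-steady-state fit.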

| Sequence | pre-steady-state target cleavage rate |
| --- | --- |
| UCCUGGAUGUCGAACCAUAGUUUUUUGUUA | 0.000187 ± 0.028 |
| UCCUGGUACAGCUUGCAUUCUAUUUUCAAA | 0.000456 ± 0.025 |
| UCCUGGAUGUCGUUGCAUAGUUAUUAGUUA | 0.000504 ± 0.021 |
| UCCUGGAUGUGCUUCGAUAGUAUUUAGUUA | 0.00201 ± 0.0065 |
| UCCUGGAUGUCGUUGCAUAGUUUUUAGUAA | 0.000875 ± 0.011 |
| UCCUGGAUGAGCUUGCUAUAGUAUUUAGUUA | 0.00315 ± 0.0033 |
| UCCUGGAUGUCGAACCAUAGUAUUUAUUUA | 0.000324 ± 0.017 |
| UCCUGGUACAGCUUGCAUAGUUUUAGUUA | 0.00279 ± 0.0062 |
| UCCUGGAUGUGCUUGGAUUGUAUUUAGUUA | 0.000337 ± 0.032 |
| UCCUGGAUGUCGUUCCAUAGUUUUUAGUUA | 0.00227 ± 0.0059 |
| UCCUGGAUGUCGAACCAUAGUUUUUAGAUA | 0.000397 ± 0.011 |
| UCCUGGAUGUGCUUGCAUAUAUUUAGUUA | 0.00388 ± 0.0049 |
| UCCUGGAUGUCCUUGCAUAGUAAAUAGUAA | 0.00157 ± 0.0068 |
| UCCUGCUUACAGCUUGCAUAGUAUUUAGUUA | 1.48 ± 0.13 |
| UCCUGGAUGUCGAACGUUAUGUAUUUAGUUA | 0.000244 ± 0.024 |
| UCCUGGAUGUCGAACCAUAGUUAUUAGUUA | 0.000333 ± 0.014 |
| UCCUGGAUGUCGAACCAUAGUAUUUAGUUUA | 0.00079 ± 0.0092 |
| UCCUCCCUACAGCUUGCAUAGUAUUUAGUUA | 1.09 ± 0.038 |
| UCCUCGAUCAGCUUGCAUAGUAUUUAGAAA | 0.422 ± 0.044 |
| UCCUGGAUGAGCAAGCAUAGUAUUUAGAAA | 0.00263 ± 0.0056 |
| UCCUGGAUGUCGAAGCAUAGUAUUUAGUA | 0.00126 ± 0.01 |
| UCCUGGAUGUGCUUGCUAAGUAUUUAGUAA | 0.00179 ± 0.0065 |
| UCCUGGAUGUCGAACCAUAGUUUUUACUUA | 0.000153 ± 0.035 |
| UCCUGGAUGUCGAACCAUAGUAUUUAGUUU [g2:g15:cont:t1U] | 0.000249 ± 0.017 |
| UCCUGGAUGUCGAACCAUAGUAUUUAAUUA | 0.000486 ± 0.013 |

Same assay, conditions: guide: L1MC piRNA 5'p-UAACUAAAUACUAUGCAAGCUGUAGGUCCU; auxiliary factor: none (no GTSF1)

| Sequence | pre-steady-state target cleavage rate |
| --- | --- |
| UCCUGGAUGUCGAACCAUAGUUUUUUGUUA | 0.000191 ± 0.021 |
| UCCUGGUACAGCUUGCAUUCUAUUUUCAAA | 0.000284 ± 0.013 |
| UCCUGGAUGUCGUUGCAUAGUUAUUAGUUA | 0.00114 ± 0.0079 |
| UCCUGGAUGUGCUUCGAUAGUAUUUAGUUA | 0.000857 ± 0.008 |
| UCCUGGAUGUCGUUGCAUAGUUUUUAGUAA | 0.000823 ± 0.0095 |
| UCCUGGAUGAGCUUGCUAUAGUAUUUAGUUA | 0.000992 ± 0.0065 |
| UCCUGGAUGUCGAACCAUAGUAUUUAUUUA | 0.000225 ± 0.026 |
| UCCUGGUACAGCUUGCAUAGUUUUAGUUA | 0.000551 ± 0.0055 |
| UCCUGGAUGUGCUUGGAUUGUAUUUAGUUA | 0.000173 ± 0.036 |
| UCCUGGAUGUCGUUCCAUAGUUUUUAGUUA | 0.00045 ± 0.015 |
| UCCUGGAUGUCGAACCAUAGUUUUUAGAUA | 0.000231 ± 0.019 |
| UCCUGGAUGUGCUUGCAUAUAUUUAGUUA | 0.002 ± 0.0038 |
| UCCUGGAUGUCCUUGCAUAGUAAAUAGUAA | 0.00155 ± 0.0048 |
| UCCUGCUUACAGCUUGCAUAGUAUUUAGUUA | 0.0826 ± 0.02 |
| UCCUGGAUGUCGAACGUUAUGUAUUUAGUUA | 0.000288 ± 0.023 |
| UCCUGGAUGUCGAACCAUAGUUAUUAGUUA | 0.000426 ± 0.01 |
| UCCUGGAUGUCGAACCAUAGUAUUUAGUUUA | 0.000461 ± 0.009 |
| UCCUCCCUACAGCUUGCAUAGUAUUUAGUUA | 0.075 ± 0.016 |
| UCCUCGAUCAGCUUGCAUAGUAUUUAGAAA | 0.00569 ± 0.0022 |
| UCCUGGAUGAGCAAGCAUAGUAUUUAGAAA | 0.0012 ± 0.0064 |
| UCCUGGAUGUCGAAGCAUAGUAUUUAGUA | 0.00223 ± 0.0035 |
| UCCUGGAUGUGCUUGCUAAGUAUUUAGUAA | 0.000855 ± 0.0074 |
| UCCUGGAUGUCGAACCAUAGUUUUUACUUA | 0.000254 ± 0.016 |
| UCCUGGAUGUCGAACCAUAGUAUUUAGUUU [g2:g15:cont:t1U] | 0.00105 ± 0.0053 |
| UCCUGGAUGUCGAACCAUAGUAUUUAAUUA | 0.000238 ± 0.016 |
